These are yes or no findings as the source states them, for the method shown. Binding seen in cells or lysates may run through a third protein. These calls come from enrichment with a bait or labelling near it, and not all partners need be listed. Sequences can lack the tags named with a protein.
T1: PA-tagged Mms22 (S. cerevisiae) (UniProt Q06164)
T1 sequence: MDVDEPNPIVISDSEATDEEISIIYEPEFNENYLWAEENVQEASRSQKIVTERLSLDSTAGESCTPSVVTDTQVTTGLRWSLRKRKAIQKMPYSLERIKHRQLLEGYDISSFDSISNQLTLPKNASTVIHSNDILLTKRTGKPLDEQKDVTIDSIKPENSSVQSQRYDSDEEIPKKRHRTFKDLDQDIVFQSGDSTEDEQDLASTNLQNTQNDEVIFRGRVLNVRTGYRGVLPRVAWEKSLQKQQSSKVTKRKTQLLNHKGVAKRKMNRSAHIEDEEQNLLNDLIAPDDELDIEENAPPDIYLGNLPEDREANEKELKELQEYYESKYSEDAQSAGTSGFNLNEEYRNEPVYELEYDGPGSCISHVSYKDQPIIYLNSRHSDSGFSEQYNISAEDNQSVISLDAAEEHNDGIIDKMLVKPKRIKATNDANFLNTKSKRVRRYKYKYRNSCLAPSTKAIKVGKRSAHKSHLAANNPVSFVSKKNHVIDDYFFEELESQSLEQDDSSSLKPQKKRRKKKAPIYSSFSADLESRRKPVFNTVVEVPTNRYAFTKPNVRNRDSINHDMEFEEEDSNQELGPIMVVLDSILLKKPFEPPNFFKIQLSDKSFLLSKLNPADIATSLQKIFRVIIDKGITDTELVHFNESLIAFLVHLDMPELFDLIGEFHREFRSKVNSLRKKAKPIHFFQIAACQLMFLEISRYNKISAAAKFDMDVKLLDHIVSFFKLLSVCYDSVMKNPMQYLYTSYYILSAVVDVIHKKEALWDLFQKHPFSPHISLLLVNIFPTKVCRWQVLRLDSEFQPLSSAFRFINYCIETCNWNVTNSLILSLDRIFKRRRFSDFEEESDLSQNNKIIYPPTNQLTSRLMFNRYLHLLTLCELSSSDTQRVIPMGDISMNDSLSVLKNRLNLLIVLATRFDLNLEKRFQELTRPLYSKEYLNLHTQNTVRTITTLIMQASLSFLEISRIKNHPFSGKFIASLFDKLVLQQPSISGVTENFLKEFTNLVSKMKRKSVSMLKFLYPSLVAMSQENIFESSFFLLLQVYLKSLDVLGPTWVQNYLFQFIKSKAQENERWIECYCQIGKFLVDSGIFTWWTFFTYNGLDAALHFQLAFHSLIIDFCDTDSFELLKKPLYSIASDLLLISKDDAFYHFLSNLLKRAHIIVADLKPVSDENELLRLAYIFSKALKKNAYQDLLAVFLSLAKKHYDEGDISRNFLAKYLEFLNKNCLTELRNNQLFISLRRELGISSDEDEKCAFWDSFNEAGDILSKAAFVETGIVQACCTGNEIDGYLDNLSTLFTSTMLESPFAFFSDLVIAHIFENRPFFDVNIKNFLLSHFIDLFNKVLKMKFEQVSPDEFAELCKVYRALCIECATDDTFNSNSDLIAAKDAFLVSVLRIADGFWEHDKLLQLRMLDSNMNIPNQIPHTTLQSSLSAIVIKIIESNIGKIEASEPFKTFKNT

Sequences of proteins named here, by UniProt entry; tags and fusion partners are left off.
UniProt P04911: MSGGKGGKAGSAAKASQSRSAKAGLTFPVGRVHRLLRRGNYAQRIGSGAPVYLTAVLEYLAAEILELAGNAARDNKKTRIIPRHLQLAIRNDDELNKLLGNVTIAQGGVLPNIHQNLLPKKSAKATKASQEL
UniProt P02294: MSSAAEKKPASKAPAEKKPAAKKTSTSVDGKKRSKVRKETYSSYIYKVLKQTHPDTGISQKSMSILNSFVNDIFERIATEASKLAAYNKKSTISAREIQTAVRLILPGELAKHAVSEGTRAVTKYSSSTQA


Molecular target: T1, PA-tagged Mms22 (S. cerevisiae)
Experiment: affinity purification with mass spectrometry; PA-Mms22 immunoprecipitated from S-phase synchronized yeast cells; associated proteins identified by shotgun LC-MS/MS

Molecule	binding
Hta1 (from UniProt P04911 1-132)	binds
Hht1 (from UniProt P61830 1-136)	binds
Ctf4 (protein, UniProt Q01454 1-927) MVSVIDKLVFDFGGKTLVSLAPDNNTLCVANKNGLTKILKTNNPEEEPETLDSSKLVSSIKCYSNSHFLMTTMQGDALRYNIDSSQEELLARFALPLRDCCVIHSGKMAVFGGDDLELILLELDDETHKKHAIKIDEQVSQISYNSQMNILAVSMINGKVQIFSLTSTIPNKVHELNDYIVANSYDDTHRDKILSNMMDDIDKDNDNDLSETADPDENNVADPEFCAANRICTRVAWHPKGLHFALPCADDTVKIFSIKGYSLQKTLSTNLSSTKAHFIDLQFDPLRGTYIAAVDLNNKLTVWNWETSEIHYTREFKRKITNIAWKIQADSKTLDLVLGTWSGSIAIVQNLAESVVSNIPDQSVAESSTKHGLFVDSESDLENLEGNDDINKSDKLFSDITQEANAEDVFTQTHDGPSGLSEKRKYNFEDEEDFIDDDDGAGYISGKKPHNEHSYSRVHKTHSFPISLANTGKFRYMPFSPAGTPFGFTDRRYLTMNEVGYVSTVKNSEQYSITVSFFDVGRFREYHFEDLFGYDLCFLNEKGTLFGQSKTGQIQYRPHDSIHSNWTKIIPLQAGERITSVAATPVRVIVGTSLGYFRSFNQFGVPFAVEKTSPIVALTAQNYRVFSVHYSQFHGLSYSLSELGTSSKRYYKRECPLPMSLPNINSDMKKDANLDYYNFNPMGIKSLFFSSYGDPCIFGSDNTLLLLSKWRSPEESKWLPILDSNMEIWKMSGGKETTDIHVWPLALAYDTLNCILVKGKHIWPEFPLPLPSEMEIRMPVFVKSKLLEENKAILNKKNEIGADTEAEEGEEDKEIQIPVSMAAEEEYLRSKVLSELLTDTLENDGEMYGNENEVLAALNGAYDKALLRLFASACSDQNVEKALSLAHELKQDRALTAAVKISERAELPSLVKKINNIREARYEQQLK	binds
Hrt1 (protein, UniProt Q08273 1-121) MSNEVDRMDVDEDESQNIAQSSNQSAPVETKKKRFEIKKWTAVAFWSWDIAVDNCAICRNHIMEPCIECQPKAMTDTDNECVAAWGVCNHAFHLHCINKWIKTRDACPLDNQPWQLARCGR	binds

Other lines, results leading:

binding	Molecule
binds	Htb2 (from UniProt P02294 1-131)
binds	Mms1 (protein, UniProt Q06211 1-1407) MLGLRTHGLDRYEHYIRRPSDFGKLELQDWLNHKSFRVSPNLLIDSSTTREWNEPELFYQNTEDETWVRPCVGPKLEPSMMMLRYHDSNIGQMPQFCYPISSPINFKPVLKYILQERSELSDGFPQKYNTLIGSLFDIDKNPETLDDSDIEALDDIEMSSDSGNVKEPKIELQALEEIQQKHFSLIVSNNGIFQTGSTSITYIQSGISGSIAIKPNNVAILILLTQPSGHLLSILPLDDGKETYLLQYWNLGQKGQWNIIKHQNEKQFVLIHKELGICKFFEFHLPFTFQLVNNLTLTDSVIMNGSFFPTNYTDLDPYFIIFITAIRYERIVYFVIEWNNNEIKKKEVYQLTVFDGEKTNMTIPIGLNACLVETPLKFSLVSANQIMSGETEFHSFQLKALKGIKSFFPAPLLLLKLQELHPHTFKKFQYCTIISSSTGNICFCVTERSTIVNGNLKFYELTRFKGLKSISPLPSNPINLDSRSSSYVLVVISFSRTLELTLSLEDLRCLDKKDVIKPLKNITFKHTIDSSTEENSQILAFTSSKFYNTHTGSNINDTRNSQVWLTSPNAITQPCIDYKLRKTHQLIHLKQFQIFRHLRIWKCKNLDIALLQRLGINQSNTESSLIFATDAVSNNRIFLLDLTMTTTIDNDDPVQGLINIEDLLCDTENETILLNFTKNNLIQVTRDTIYIDPIGGDKELRKISPGWEFENVTYNDGILIVWNAGLGCVSYIENIDAVDESGALVSNLSSSKGMSKFFKQLGTVTSVNFQIKESTDDPTKYDIWILLPDCVIRTPFSDWISDSLDFSDVYILSVQQALINGPYFCSLDYESYFEVHTLQNNCFKKGSRCTSRVNFQGKDIKFRSFGVNQCLAFSAFEIFVINLTPIHDSRELDFYKLKLPHLGNNNSILEVCPDIENNQLFILYSDGLRILELSYLTSNNGNFLLKSTRSKNKKFLYLDKINRMLVLNQDLREWECIRLSDGKAVGLDSQLLKDDSEEILEIKELPIATEDNPLEKKTVLLISFTSSLKLVLLTAAKNKISNQIIDSYKLDNSRLLNHLVITPRGEIFFLDYKVMGTDNEMSFNKLKVTKHCIDQEERNNTTLRLTLETRFTFKSWSTVKTFTVVGDNIIATTNMGEKLYLIKDFSSSSDESRRVYPLEMYPDSKVQKIIPLNECCFVVAAYCGNRNDLDSRLIFYSLPTIKVGLNNETGSLPDEYGNGRVDDIFEVDFPEGFQFGTMALYDVLHGERHVNRYSEGIRSENDEAEVALRQRRNLLLFWRNHSSTPKPSLRRAATIVYEDHVSSRYFEDISSILGSTAMRTKRLSPYNAVALDKPIQDISYDPAVQTLYVLMADQTIHKFGKDRLPCQDEYEPRWNSGYLVSRRSIVKSDLICEVGLWNLSDNCKNTV
binds	Rtt101 (protein, UniProt P47050 1-842) MINESVSKREGFHESISRETSASNALGLYNKFNDERNPRYRTMIAELHEFFHLTLAETITETDVKELECNKEKAAKFRKLMPKMLNNCRELTQRKSYIPYNSEFNGNDEKQKKFQLLHQHQIVLSFQEFCDELAKLIIDAHVLSFLTRCDYSYEIIPKNWTSFYKLFQYVMGAVGPIISYVPVNYPMIRKELGFETLTIFQYYDSKLFECMKSHFGREFSTLVSATIHHYIHMFPITNTMLEKEVPMLRIMSNCNFSIEGLSPKDFYMKTLRQYYCEESNLRPRLETFKNFKVLLTRNALLASLFSPEWVSDANDLFISHLLLNKKSISEYIEIGKDTYDEEKERYFKTETHFSLLMFRNAFEAKNMLSKFKEFCDDAVSEKLKAAYGSNHDTERLFDEVVQLANVDHLKIYSDSIEYHLCNLLGSTSKAIEQYVKYFESHLFIIVRKIKTTKKDLPRDMKIKYLNENLPILRLKFVNLPTFPNFFERSIFRKTILQSDQNSSFIKDILPVYKDSLMELFKQRIITNVSQEDEMRYRDQYQPYLSQFFQPVEVMADLRIKYASFLSFYENIEAAVKFGKTYNENNSKSFFPLIFDRERIPKVFQQSNEVKKNFVLPQEMDDTWNQFLRNYHEQNKVEDSDASKKELYPMWNLHHCEVESPYIIQDGTNLIFELTLFQTCVLTLFNESDHLTLQVISEQTKLAYKDLALVLKSFCNYKILTRDIDNTYSINESFKPDMKKVKNGKLRVVLPRTASLQSSNTGGERTSSAHHEGSNSQWTQELLKACITRSVKSERNGLDYDHLFETVKQQIKGFSVGEFKDALAKLLRDKFITRDESTATYKY

— publication PMC4743919
